Experimental data: PubChem BioAssay AID1259308 (NCATS, 2017)
Screen: 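Genes whose loss raises luciferase production in HEK293 cells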 (primary screen). Cell system: human HEK293 embryonic kidney cells stably expressing firefly luciferase (HEK-CMV-Luc2-Hygro). Knock-down reagent: single siRNA against human genes, 0.8 pmol siRNA per well. Duration: 72 h. Read-out: 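Reporter luminescence and viable-cell signal on separate replicate plates, given as percent of non-targeting control and median/MAD z-scores, plus per-cell luciferase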. Direction: total luciferase, z-score and total luciferase, % of control: higher = more reporter protein produced; luciferase per cell, z-score: higher = more reporter output per viable cell; viable cells, % of control: higher = more viable cells. Rule for the call: 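Active when the median/MAD z-score for overall luciferase is greater than 3; a gene was taken forward for validation with new siRNAs if at least two of its three siRNAs passed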. Meaning of the calls: active = raised luciferase; inactive = no rise.
The whole screen tested about 59,000 reagents; below is an unselected part. Over the whole deposit, about 1,510 (2.6%) were called active. 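Calls use total luciferase alone and ignore viability, so some active siRNAs may act by altering cell number.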 A number with no mark means an inactive call. Reagents against one gene are numbered here.

| gene | reagent | total luciferase, z-score | total luciferase, % of control | luciferase per cell, z-score | viable cells, % of control |
| --- | --- | --- | --- | --- | --- |
| SAMHD1 | 1 | -1.75 | 47.1 | -1.43 | 76.7 |
| SAMHD1 | 2 | 0.941 | 101 | 2.7 | 55.2 |
| SAMHD1 | 3 | -1.21 | 57.7 | -1.28 | 90.4 |
| SLC36A3 | 1 | -0.708 | 67.8 | -0.0176 | 76.1 |
| SLC36A3 | 2 | -0.557 | 70.8 | -0.074 | 80.7 |
| SLC36A3 | 3 | 0.448 | 90.8 | -0.139 | 105 |
| ZNF575 | 1 | -0.275 | 76.4 | 0.909 | 67.2 |
| ZNF575 | 2 | 0.492 | 91.7 | -0.18 | 107 |
| ZNF575 | 3 | -0.386 | 74.2 | -1.13 | 112 |
| SLC66A2 | 1 | 1.42 | 110 | 1.1 | 92 |
| SLC66A2 | 2 | -1.67 | 48.7 | -1.89 | 89.6 |
| SLC66A2 | 3 | 1.87 | 119 | 0.915 | 105 |
| ASTE1 | 1 | 0.277 | 87.4 | -0.383 | 108 |
| ASTE1 | 2 | 0.656 | 94.9 | 0.867 | 84.4 |
| ASTE1 | 3 | -1.14 | 59.2 | -1.9 | 109 |
| FRG1 | 1 | -1.31 | 55.9 | -0.0663 | 63.6 |
| FRG1 | 2 | 1.92 | 120 | 2.53 | 69 |
| FRG1 | 3 | -0.772 | 66.5 | -0.649 | 88.2 |
| C2CD4A | 1 | -0.742 | 67.1 | -0.272 | 80.6 |
| C2CD4A | 2 | -0.0209 | 81.5 | -0.324 | 99.1 |
| C2CD4A | 3 | -0.941 | 63.2 | -0.911 | 89.7 |

5 entries from above, ordered by “total luciferase, z-score”, highest first:
| gene | reagent | total luciferase, z-score | total luciferase, % of control | luciferase per cell, z-score | viable cells, % of control |
| --- | --- | --- | --- | --- | --- |
| FRG1 | 2 | 1.92 | 120 | 2.53 | 69 |
| C2CD4A | 2 | -0.0209 | 81.5 | -0.324 | 99.1 |
| C2CD4A | 1 | -0.742 | 67.1 | -0.272 | 80.6 |
| FRG1 | 3 | -0.772 | 66.5 | -0.649 | 88.2 |
| FRG1 | 1 | -1.31 | 55.9 | -0.0663 | 63.6 |

Continued:
| gene | reagent | total luciferase, z-score | total luciferase, % of control | luciferase per cell, z-score | viable cells, % of control |
| --- | --- | --- | --- | --- | --- |
| SHISA4 | 1 | 0.275 | 87.4 | 0.0972 | 95.2 |
| SHISA4 | 2 | -0.813 | 65.7 | -0.337 | 80.3 |
| SHISA4 | 3 | -1.72 | 47.7 | -0.53 | 61.2 |
| CSAG1 | 1 | -1.85 | 45.1 | -0.893 | 63.8 |
| CSAG1 | 2 | -2.13 | 39.4 | -1.36 | 63.1 |
| CSAG1 | 3 | 2.05 | 123 | 1.68 | 88.2 |
| NLGN4Y | 1 | -0.161 | 78.7 | 0.216 | 83.1 |
| NLGN4Y | 2 | -1.19 | 58.1 | -1.37 | 93.2 |
| NLGN4Y | 3 | 1.5 | 112 | 1.64 | 81 |
| ACTR1B | 1 | -0.0208 | 81.5 | -0.812 | 113 |
| ACTR1B | 2 | 0.64 | 94.6 | 0.391 | 95.4 |
| ACTR1B | 3 | -0.0997 | 79.9 | 0.994 | 68.7 |
| ZBTB24 | 1 | -2.41 | 34 | -0.443 | 42.6 |
| ZBTB24 | 2 | -0.321 | 75.5 | 0.0628 | 83 |
| ZBTB24 | 3 | 1.99 | 122 | 1.76 | 85.4 |
| MCTS1 | 1 | 0.481 | 91.5 | -0.0354 | 103 |
| MCTS1 | 2 | 1.35 | 109 | 1 | 93.4 |
| MCTS1 | 3 | -1.01 | 61.7 | -0.672 | 82.3 |
| CNGA1 | 1 | -0.309 | 75.7 | -0.771 | 104 |
| CNGA1 | 2 | 0.813 | 98.1 | 0.278 | 102 |
| CNGA1 | 3 | 0.415 | 90.1 | -0.166 | 105 |
| LRRC57 | 1 | 0.0968 | 83.8 | -0.0166 | 94.1 |
| LRRC57 | 2 | 0.378 | 89.4 | 0.436 | 89.1 |
| LRRC57 | 3 | 0.494 | 91.7 | 0.24 | 96.2 |
| SPACA9 | 1 | 0.12 | 84.3 | -0.0614 | 95.7 |
| SPACA9 | 2 | -0.62 | 69.6 | -0.728 | 94.1 |
| SPACA9 | 3 | -1.64 | 49.3 | -1.59 | 83.8 |
| VSTM2A | 1 | 1.57 | 113 | 1.9 | 76.6 |
| VSTM2A | 2 | 1.58 | 113 | 0.822 | 102 |
| VSTM2A | 3 | -1.18 | 58.3 | -0.132 | 67.5 |
| MMP16 | 1 | 0.82 | 98.2 | 0.182 | 105 |
| MMP16 | 2 | -0.476 | 72.4 | -0.53 | 93.1 |
| MMP16 | 3 | 1.53 | 112 | 1.75 | 79.2 |
| SLC26A5 | 1 | -1.44 | 53.3 | -0.963 | 76.7 |
| SLC26A5 | 2 | -0.245 | 77 | -0.0462 | 87.1 |
| SLC26A5 | 3 | -1.12 | 59.6 | 0.182 | 63.5 |
